The supplement of paper PMC8256030
Several values for one entry are separate records, joined by “and”; a condition that tells them apart may be missing. Equal entries are not always repeated. Structures can show the parent of a compound that is named as a salt. The list shows a part of the results. Repeats in this data set agree poorly, so a single value says little.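 HEK293T cells were given each compound shortly before transfection with a reporter in which red mCherry is followed by the SARS-CoV-2 frameshift element and then GFP in the −1 frame, so GFP appears only after frameshifting.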

These compounds were tested on SARS-CoV-2 -1 PRF reporter mCherry-FSE-GFP(-1) (assay: percent effect, decrease of GFP/mCherry ratio (-1 PRF reporter) relative to controls; higher = stronger frameshift inhibition). Conditions: 10 µM; 24 h; HEK293T.

Row | Structure (SMILES) | percent effect
1 | CCn1cc(C(=O)O)c(=O)c2ccc(C)nc21 [nalidixic acid] | -2.76%
2 | C/C=C/C(=O)N(CCC)C(CC)C(=O)N(C)C (stereo not given) [cropropamide] | -0.343%
3 | CCCCS(=O)(=O)N[C@@H](Cc1ccc(OCCCCC2CCNCC2)cc1)C(=O)O [tirofiban] | 14%
4 | CSC[C@H](NC(=O)[C@H](Cc1ccccc1)NC(=O)N1CCOCC1)C(=O)N[C@@H](CC1CCCCC1)[C@@H](O)C(=O)OC(C)C [terlakiren] | -14.1%
5 | CCC(=O)NC[C@@H]1C[C@H]1c1cccc2c1CCO2 [Tasimelteon] | -0.788%
6 | N=C(N)NS(=O)(=O)c1ccc(N)cc1 [sulfaguanidine] | -10.4%
7 | OCc1ccccc1O[C@@H]1O[C@H](CO)[C@@H](O)[C@H](O)[C@H]1O | -2.57%
8 | O=C1C(=O)c2ccccc2C(O)=C1C1CCC(c2ccc(Cl)cc2)CC1 (stereo not given) | -8.69%
9 | Oc1ccc(Cl)c2cccnc12 [cloxiquine] | -3.79%
10 | C=CCc1ccccc1OCC(O)CNC(C)C (stereo not given) [Alprenolol·HCl] | 0.672%
11 | O=c1n(CCCN2CCN(c3cccc(Cl)c3)CC2)nc2ccccn12 [trazodone] | 0.925%
12 | O=C1c2ccccc2CN2C(=O)c3ccccc3CN12 [diftalone] | -1.38%
13 | O=C(O)Cc1nn(Cc2ccc(Br)cc2F)c(=O)c2ccccc12 [ponalrestat] | -1.69%
14 | Oc1ncnc2[nH]ncc12 [allopurinol] | -2.01%
15 | O=C(O)CCC/C=C\C[C@@H]1[C@@H](/C=C/[C@@H](O)COc2cccc(C(F)(F)F)c2)[C@H](O)C[C@@H]1O (racemic) [fluprostenol] | -3.37%
16 | CC(C)[C@H]1CC[C@H](C(=O)N[C@H](Cc2ccccc2)C(=O)O)CC1 [nateglinide] | 2.33%
17 | CO[C@H]1C[C@@H]2CC[C@@H](C)[C@@](O)(O2)C(=O)C(=O)N2CCCC[C@H]2C(=O)O[C@H]([C@H](C)C[C@@H]2CC[C@@H](OC(=O)C(C)(CO)CO)[C@H](OC)C2)CC(=O)[C@H](C)/C=C(\C)[C@@H](O)[C@@H](OC)C(=O)[C@H](C)C[C@H](C)/C=C/C=C/C=C/1C [Torisel] | -5.09%
18 | C=CC[C@@H]1/C=C(\C)C[C@H](C)C[C@H](OC)[C@H]2O[C@@](O)(C(=O)C(=O)N3CCCC[C@H]3C(=O)O[C@H](/C(C)=C/[C@@H]3CC[C@@H](O)[C@H](OC)C3)[C@H](C)[C@@H](O)CC1=O)[C@H](C)C[C@@H]2OC [Tacrolimus] | -0.444%
19 | C=C1CC[C@H](O)C/C1=C/C=C1\CCC[C@]2(C)[C@@H]([C@H](C)/C=C/[C@H](C)C(C)C)CC[C@@H]12 [ergocalciferol] | -23.8%
20 | NC(=O)c1csc([C@@H]2O[C@H](CO)[C@@H](O)[C@H]2O)n1 [tiazofurine] | -4.12%

Arranged by number of heavy atoms (smallest number first): some entries from above
Row | Structure (SMILES) | percent effect
20 | NC(=O)c1csc([C@@H]2O[C@H](CO)[C@@H](O)[C@H]2O)n1 [tiazofurine] | -4.12%
7 | OCc1ccccc1O[C@@H]1O[C@H](CO)[C@@H](O)[C@H](O)[C@H]1O | -2.57%
19 | C=C1CC[C@H](O)C/C1=C/C=C1\CCC[C@]2(C)[C@@H]([C@H](C)/C=C/[C@H](C)C(C)C)CC[C@@H]12 [ergocalciferol] | -23.8%

(list continues)

Row | Structure (SMILES) | percent effect
21 | CN(C)[C@@H]1C(=O)C(C(N)=O)=C(O)[C@@]2(O)C(=O)C3=C(O)c4c(O)ccc(Cl)c4[C@@H](O)[C@H]3C[C@@H]12 [Demeclocycline] | 1.63%
22 | CN(C)CC(c1ccc(O)cc1)C1(O)CCCCC1 (stereo not given) [desvenlafaxine] | -1.96%
23 | C#Cc1cccc(Nc2ncnc3cc(OCCOC)c(OCCOC)cc23)c1 [Erlotinib] | -1.02%
24 | Cc1cnc(C(=O)NCCc2ccc(S(=O)(=O)NC(=O)NC3CCCCC3)cc2)cn1 [glipizide] | -3.93% and -2.07%
25 | CC(C)C(=O)OCC(=O)[C@@]12O[C@H](C3CCCCC3)O[C@@H]1C[C@H]1[C@@H]3CCC4=CC(=O)C=C[C@]4(C)[C@H]3[C@@H](O)C[C@@]12C [Ciclesonide] | -0.133%
26 | CCC(c1ccc(O)cc1)C(CC)C(C)c1ccc(O)cc1 (stereo not given) [benzestrol] | 1.2%
27 | CCC1=C(C)CN(C(=O)NCCc2ccc(S(=O)(=O)NC(=O)N[C@H]3CC[C@H](C)CC3)cc2)C1=O | -5.81%
28 | O=C1CCc2cc(OCCCCc3nnnn3C3CCCCC3)ccc2N1 [cilostazol] | 0.7%
29 | O=C(O)Cc1csc(-c2ccc(Cl)cc2)n1 [fenclozic acid] | -2.03%
30 | C[N+](C)(CCOc1ccccc1)Cc1ccccc1.O=C([O-])c1cc2ccccc2cc1O [bephenium hydroxynaphthoate] | -0.586%
31 | C=C1[C@H](CO)[C@@H](O)C[C@@H]1n1cnc2c(=O)[nH]c(N)nc21 [Baraclude] | -0.0138%
32 | Cc1cn([C@H]2O[C@@H](CO)[C@H](O)[C@H]2F)c(=O)[nH]c1=O [clevudine] | 0.636%
33 | CC[N+]([O-])(CC)CCOc1ccc(/C(=C(/Cl)c2ccccc2)c2ccccc2)cc1 [clomifenoxide] | -2.89%
34 | CC(C(=O)O)c1ccc2oc(-c3ccc(Cl)cc3)nc2c1 (stereo not given) [benoxaprofen] | -4.8%
35 | CN1c2cc(O)c(N=NC(N)=O)cc2CC1S(=O)(=O)O (stereo not given) [carbazochrome sodium sulfonate] | -8.54%
36 | Nc1ncnc(Nc2ccccc2)n1 [amanozine] | -1.63%
37 | CC(C(=O)O)c1ccc(N2CC=CC2)c(Cl)c1 (stereo not given) [pirprofen] | -4.04%
38 | CN(C)c1cc(NC(=O)CNC(C)(C)C)c(O)c2c1C[C@H]1C[C@H]3[C@H](N(C)C)C(=O)C(C(N)=O)=C(O)[C@@]3(O)C(=O)C1=C2O | -1.49%
39 | CCC1(c2c[nH]cn2)Cc2ccccc2C1 [atipamezole] | -3.73%
40 | C#CC1(O)CC[C@H]2[C@@H]3CCC4=CC(=O)CC[C@@H]4[C@H]3CC[C@@]21CC (stereo not given in full) [norgestrel] | -2.29%
